Reference: the supplement of paper PMC10849652
This is one part of the list.

By UniProt entry, the sequences of proteins in these tests, tags left out. Where a name states a change or a piece, a line headed by the entry shows the natural chain unless it says otherwise.
UniProt Q96DR8: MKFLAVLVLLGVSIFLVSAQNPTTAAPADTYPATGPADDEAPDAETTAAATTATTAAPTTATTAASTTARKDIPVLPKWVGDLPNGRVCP
UniProt P10242: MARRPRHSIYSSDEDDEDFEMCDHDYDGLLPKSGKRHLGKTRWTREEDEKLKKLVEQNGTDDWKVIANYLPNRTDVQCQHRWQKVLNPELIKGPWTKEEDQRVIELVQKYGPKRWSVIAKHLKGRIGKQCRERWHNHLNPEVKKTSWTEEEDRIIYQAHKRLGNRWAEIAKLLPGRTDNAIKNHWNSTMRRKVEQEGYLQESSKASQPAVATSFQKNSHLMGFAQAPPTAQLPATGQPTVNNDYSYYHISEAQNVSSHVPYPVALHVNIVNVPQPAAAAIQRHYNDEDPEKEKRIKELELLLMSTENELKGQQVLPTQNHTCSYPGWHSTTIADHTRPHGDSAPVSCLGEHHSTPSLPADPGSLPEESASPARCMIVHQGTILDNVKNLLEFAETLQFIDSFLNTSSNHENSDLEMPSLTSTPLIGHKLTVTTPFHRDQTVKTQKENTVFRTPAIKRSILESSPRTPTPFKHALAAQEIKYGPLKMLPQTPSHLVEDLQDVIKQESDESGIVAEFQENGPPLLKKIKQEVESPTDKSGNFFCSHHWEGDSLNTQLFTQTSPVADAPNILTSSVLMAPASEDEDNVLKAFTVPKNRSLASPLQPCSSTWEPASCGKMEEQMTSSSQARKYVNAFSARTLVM
UniProt Q86UW6: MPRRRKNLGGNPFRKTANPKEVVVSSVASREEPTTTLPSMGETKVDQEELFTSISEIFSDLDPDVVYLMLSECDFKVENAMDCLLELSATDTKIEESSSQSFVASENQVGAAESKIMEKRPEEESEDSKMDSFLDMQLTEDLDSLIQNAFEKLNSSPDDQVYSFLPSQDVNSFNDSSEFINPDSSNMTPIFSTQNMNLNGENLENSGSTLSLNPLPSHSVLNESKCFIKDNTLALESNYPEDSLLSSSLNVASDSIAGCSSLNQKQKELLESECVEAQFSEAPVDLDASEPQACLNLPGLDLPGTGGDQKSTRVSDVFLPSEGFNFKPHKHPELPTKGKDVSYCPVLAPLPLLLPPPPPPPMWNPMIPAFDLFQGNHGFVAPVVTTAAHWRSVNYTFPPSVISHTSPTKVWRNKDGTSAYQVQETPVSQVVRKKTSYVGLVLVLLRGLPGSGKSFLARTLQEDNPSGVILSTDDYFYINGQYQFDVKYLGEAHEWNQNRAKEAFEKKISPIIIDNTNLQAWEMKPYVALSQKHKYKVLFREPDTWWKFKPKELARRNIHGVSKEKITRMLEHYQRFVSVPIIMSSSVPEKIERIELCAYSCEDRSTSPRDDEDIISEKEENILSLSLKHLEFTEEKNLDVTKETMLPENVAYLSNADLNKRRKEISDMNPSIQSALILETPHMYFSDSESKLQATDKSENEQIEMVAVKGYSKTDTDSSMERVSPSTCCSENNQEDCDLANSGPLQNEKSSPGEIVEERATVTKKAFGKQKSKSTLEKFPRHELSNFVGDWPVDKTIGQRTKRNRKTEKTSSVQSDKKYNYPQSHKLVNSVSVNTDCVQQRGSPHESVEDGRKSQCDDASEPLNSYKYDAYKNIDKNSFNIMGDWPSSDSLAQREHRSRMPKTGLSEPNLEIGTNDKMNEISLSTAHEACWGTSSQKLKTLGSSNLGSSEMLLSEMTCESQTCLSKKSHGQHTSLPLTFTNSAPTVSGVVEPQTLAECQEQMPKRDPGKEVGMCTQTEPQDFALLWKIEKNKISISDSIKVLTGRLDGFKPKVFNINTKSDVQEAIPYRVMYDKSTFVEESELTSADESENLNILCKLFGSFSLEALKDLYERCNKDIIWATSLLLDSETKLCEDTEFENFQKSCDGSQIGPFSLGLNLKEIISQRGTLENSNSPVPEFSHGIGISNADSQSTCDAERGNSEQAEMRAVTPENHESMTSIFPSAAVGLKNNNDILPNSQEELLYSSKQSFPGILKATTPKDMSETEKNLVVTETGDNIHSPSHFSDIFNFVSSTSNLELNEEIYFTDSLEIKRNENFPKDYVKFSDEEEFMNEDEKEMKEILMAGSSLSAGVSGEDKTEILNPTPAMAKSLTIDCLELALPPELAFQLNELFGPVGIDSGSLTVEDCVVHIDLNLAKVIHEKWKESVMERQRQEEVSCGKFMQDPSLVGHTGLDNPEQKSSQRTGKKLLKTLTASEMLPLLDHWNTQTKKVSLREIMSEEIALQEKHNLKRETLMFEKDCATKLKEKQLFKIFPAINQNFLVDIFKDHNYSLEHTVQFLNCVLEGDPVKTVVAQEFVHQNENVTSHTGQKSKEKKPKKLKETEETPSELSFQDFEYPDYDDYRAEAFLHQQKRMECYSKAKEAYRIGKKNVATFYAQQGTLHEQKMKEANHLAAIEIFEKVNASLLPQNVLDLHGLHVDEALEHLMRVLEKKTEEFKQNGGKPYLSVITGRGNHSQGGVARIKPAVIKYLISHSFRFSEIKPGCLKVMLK
UniProt P35749, whole entry, looked up: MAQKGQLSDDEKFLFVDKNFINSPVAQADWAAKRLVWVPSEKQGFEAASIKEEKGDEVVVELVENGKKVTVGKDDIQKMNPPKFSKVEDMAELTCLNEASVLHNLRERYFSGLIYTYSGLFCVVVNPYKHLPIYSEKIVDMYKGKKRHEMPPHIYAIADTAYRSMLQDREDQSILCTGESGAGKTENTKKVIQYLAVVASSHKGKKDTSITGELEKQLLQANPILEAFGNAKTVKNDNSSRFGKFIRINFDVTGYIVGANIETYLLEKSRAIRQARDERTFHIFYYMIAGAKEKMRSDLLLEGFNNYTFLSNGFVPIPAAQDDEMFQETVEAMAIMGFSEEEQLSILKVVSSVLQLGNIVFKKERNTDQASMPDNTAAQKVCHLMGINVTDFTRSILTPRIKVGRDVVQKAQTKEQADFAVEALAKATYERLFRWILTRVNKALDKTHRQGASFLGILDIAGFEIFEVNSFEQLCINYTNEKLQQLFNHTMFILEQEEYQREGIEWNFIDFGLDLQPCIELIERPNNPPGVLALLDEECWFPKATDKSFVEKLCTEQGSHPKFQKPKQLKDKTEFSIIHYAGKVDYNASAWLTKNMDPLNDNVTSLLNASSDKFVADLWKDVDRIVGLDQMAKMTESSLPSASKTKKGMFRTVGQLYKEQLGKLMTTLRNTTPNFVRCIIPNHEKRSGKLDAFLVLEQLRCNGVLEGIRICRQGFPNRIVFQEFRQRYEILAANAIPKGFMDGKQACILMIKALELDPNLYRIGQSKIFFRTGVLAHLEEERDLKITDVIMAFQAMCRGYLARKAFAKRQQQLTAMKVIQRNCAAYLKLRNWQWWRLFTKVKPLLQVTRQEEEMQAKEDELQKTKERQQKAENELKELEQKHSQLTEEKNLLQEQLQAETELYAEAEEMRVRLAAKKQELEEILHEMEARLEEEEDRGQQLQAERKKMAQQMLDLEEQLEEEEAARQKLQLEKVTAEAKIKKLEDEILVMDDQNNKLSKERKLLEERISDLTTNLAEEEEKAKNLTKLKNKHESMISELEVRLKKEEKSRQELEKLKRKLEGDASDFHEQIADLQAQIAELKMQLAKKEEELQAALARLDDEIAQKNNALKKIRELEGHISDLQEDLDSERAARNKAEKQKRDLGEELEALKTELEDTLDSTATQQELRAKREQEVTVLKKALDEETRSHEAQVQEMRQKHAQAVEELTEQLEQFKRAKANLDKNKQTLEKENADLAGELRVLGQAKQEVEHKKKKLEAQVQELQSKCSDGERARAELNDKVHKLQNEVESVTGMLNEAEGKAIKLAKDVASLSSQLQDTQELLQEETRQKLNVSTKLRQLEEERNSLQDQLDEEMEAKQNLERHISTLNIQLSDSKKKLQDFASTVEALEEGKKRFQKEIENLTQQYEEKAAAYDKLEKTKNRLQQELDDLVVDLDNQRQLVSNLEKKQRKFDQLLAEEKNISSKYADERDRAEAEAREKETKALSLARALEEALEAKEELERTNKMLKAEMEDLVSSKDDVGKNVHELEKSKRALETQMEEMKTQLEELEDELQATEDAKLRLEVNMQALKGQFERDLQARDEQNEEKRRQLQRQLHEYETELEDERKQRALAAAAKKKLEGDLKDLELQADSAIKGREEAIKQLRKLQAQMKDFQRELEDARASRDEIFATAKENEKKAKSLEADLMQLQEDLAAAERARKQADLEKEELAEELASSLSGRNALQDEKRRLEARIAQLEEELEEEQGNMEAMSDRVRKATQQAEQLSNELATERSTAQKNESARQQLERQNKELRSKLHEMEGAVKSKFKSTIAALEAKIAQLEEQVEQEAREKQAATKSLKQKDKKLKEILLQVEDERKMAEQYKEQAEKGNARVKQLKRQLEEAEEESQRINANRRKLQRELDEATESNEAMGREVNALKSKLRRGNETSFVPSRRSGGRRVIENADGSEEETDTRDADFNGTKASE
UniProt Q14686, whole entry, looked up: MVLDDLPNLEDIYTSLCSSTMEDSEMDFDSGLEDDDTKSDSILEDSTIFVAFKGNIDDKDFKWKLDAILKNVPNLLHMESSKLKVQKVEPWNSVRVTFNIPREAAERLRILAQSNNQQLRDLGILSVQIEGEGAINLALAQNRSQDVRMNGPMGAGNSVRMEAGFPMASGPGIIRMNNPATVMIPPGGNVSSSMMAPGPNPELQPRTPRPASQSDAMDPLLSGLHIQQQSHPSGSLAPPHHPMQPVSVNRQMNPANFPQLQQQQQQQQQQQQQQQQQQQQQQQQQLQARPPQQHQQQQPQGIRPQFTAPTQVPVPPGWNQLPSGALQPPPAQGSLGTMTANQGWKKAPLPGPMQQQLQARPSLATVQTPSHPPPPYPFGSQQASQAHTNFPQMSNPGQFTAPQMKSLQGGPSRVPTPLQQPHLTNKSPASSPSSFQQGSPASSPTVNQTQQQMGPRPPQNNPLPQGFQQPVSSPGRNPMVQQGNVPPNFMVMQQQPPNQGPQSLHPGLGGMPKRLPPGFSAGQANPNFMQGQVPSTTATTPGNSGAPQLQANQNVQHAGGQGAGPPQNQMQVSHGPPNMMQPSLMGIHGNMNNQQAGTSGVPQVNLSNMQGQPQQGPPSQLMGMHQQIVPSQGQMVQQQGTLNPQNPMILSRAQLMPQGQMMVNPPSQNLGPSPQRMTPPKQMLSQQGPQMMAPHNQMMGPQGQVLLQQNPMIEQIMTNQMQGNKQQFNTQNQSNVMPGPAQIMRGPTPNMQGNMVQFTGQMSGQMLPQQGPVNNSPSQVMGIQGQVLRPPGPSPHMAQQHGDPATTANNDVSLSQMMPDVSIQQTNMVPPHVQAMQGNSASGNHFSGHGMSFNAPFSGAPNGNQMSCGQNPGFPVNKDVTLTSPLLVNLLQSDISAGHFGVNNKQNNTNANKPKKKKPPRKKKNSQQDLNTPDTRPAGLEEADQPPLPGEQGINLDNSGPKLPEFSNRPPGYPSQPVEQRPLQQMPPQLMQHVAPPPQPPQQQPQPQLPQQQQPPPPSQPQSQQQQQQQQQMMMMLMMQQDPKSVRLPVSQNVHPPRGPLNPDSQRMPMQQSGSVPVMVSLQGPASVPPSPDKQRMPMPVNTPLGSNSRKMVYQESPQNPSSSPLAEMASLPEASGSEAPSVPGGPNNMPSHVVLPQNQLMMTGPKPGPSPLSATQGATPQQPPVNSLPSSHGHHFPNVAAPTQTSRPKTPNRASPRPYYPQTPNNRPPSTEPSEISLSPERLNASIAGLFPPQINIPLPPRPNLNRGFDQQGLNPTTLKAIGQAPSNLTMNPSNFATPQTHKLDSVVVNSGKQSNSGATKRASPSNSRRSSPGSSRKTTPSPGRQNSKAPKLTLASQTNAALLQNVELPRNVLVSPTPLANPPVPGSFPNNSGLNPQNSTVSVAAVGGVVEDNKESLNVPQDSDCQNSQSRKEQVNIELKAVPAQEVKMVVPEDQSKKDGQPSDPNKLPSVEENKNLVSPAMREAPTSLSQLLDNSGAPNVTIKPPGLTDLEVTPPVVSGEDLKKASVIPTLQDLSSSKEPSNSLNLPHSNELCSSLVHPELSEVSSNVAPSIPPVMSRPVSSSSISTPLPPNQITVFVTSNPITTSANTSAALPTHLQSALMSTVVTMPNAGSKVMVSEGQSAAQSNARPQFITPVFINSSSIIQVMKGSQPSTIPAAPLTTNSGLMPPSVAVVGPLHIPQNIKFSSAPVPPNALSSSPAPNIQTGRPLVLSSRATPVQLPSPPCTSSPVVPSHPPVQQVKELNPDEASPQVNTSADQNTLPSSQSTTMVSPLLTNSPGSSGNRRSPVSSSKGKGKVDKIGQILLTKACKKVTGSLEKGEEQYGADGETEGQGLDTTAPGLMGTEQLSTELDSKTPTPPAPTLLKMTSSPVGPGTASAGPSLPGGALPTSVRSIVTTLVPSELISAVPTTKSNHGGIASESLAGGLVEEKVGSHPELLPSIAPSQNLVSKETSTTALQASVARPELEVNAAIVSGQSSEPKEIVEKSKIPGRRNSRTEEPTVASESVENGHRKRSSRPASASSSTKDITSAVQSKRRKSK

Key:
Assay in all cases: log2 fold change, soluble protein after heating vs DMSO (PISA); higher = thermal stabilisation; K562 lysate, 10 uM; active = over 0.2 and 3.5 SD of the protein, either way, in both replicates (recomputed)
[1] = compound: C1=CC=C(C=C1)[C@H](COC2=CC3=C(C=C2)NC(=O)N3)NC(=O)C4=CC=CN(C4=O)CC5=CC(=C(C=C5)F)F
Method in brief: (§1)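 Quantification was by TMTpro 16plex LC-MS/MS with equalised channel sums, applied to the supernatant after 21,000xg for 90 min. Samples were crude K562 extract at 1 mg/mL protein in PBS pH 7.4 with 1 mM MgCl2, treated with 10 μM compound for 30 min, heated for 3 min across 48°C-58°C, pooled and brought to 0.5% NP-40 at 4°C. Values are log-two fold changes in thermal stability relative to solvent controls, from duplicates.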

[2] = compound: CC1=C(SC2=C1C(=N[C@H](C3=NN=C(N32)C)CC(=O)N)C4=CC=C(C=C4)Cl)C
Method in brief: as §1

[3] = compound: CC1=C2C(=CC=C1)N=C(N(C2=O)C3=CC=CC=C3C)CN4C=NC5=C(N=CN=C54)N
Method in brief: as §1

[4] = compound: Cc1sc2c(c1C)C(c1ccc(Cl)cc1)=N[C@@H](CC(=O)OC(C)(C)C)c1nnc(C)n1-2
Method in brief: as §1

[5] = compound: c1ccc([C@@H]2C[C@H]2NC2CCNCC2)cc1
Method in brief: as §1

Row | Target | log2 fold change [1] | log2 fold change [2] | log2 fold change [3] | log2 fold change [4] | log2 fold change [5]
1 | NASP (UniProt P49321) | inactive: 0.027 | inactive: -0.003 | inactive: -0.009 | inactive: 0.003 | inactive: 0.011
2 | NCOA7 (UniProt Q8NI08) | inactive: 0.028 | inactive: -0.016 | inactive: 0.016 | inactive: 0.013 | inactive: -0.005
3 | NAA30 (UniProt Q147X3) | inactive: 0 | inactive: 0.018 | inactive: 0.033 | inactive: 0.02 | inactive: -0.013
4 | MYH10 isoform 3 (UniProt P35580) | inactive: 0.003 | inactive: 0.006 | inactive: 0.022 | inactive: 0.005 | inactive: 0.01
5 | NCOA5 (UniProt Q9HCD5) | inactive: 0.113 | inactive: 0.113 | inactive: 0.012 | inactive: 0.087 | inactive: -0.017
6 | MVB12A (UniProt Q96EY5) | inactive: 0.006 | inactive: 0.032 | inactive: 0.017 | inactive: 0.032 | inactive: 0.059
7 | MYO18A (UniProt Q92614) | inactive: 0.016 | inactive: 0.011 | inactive: 0.006 | inactive: 0.03 | inactive: -0.003
8 | MYH9 (UniProt P35579) | inactive: -0.002 | inactive: 0.014 | inactive: 0.009 | inactive: -0.003 | inactive: -0.006
9 | NCBP1 (UniProt Q09161) | inactive: 0.003 | inactive: -0.01 | inactive: -0.003 | inactive: -0.012 | inactive: 0.011
10 | MYADM (UniProt Q96S97) | inactive: -0.06 | inactive: 0.017 | inactive: 0.032 | inactive: -0.015 | inactive: -0.015
11 | NAA20 (UniProt P61599) | inactive: -0.09 | inactive: 0.032 | inactive: 0.03 | inactive: 0.023 | inactive: 0.009
12 | NAXD (UniProt Q8IW45) | inactive: 0.052 | inactive: 0.009 | inactive: -0.014 | inactive: 0.038 | inactive: 0
13 | NCOA2 (UniProt Q15596) | inactive: 0.083 | inactive: 0.145 | inactive: 0.044 | inactive: 0.001 | inactive: -0.016
14 | NARS2 (UniProt Q96I59) | inactive: 0.013 | inactive: 0.024 | inactive: 0.092 | inactive: 0.053 | inactive: -0.05
15 | NBEA (UniProt Q8NFP9) | inactive: -0.019 | inactive: -0.008 | inactive: -0.056 | inactive: -0.022 | inactive: -0.058
16 | NCL (UniProt P19338) | inactive: -0.002 | inactive: 0.002 | inactive: -0.004 | inactive: 0 | inactive: -0.004
17 | NCK1 (UniProt P16333) | inactive: 0.018 | inactive: 0 | inactive: 0.022 | inactive: 0.003 | inactive: 0.049
18 | MYL6B (UniProt P14649) | inactive: -0.009 | inactive: -0.028 | inactive: -0.001 | inactive: 0.012 | inactive: -0.019
19 | MZT2A (UniProt Q6P582) | inactive: 0.012 | inactive: -0.009 | inactive: 0.06 | inactive: 0.101 | inactive: 0.064
20 | MYBBP1A isoform 2 (UniProt Q9BQG0) | inactive: -0.003 | inactive: 0.048 | inactive: 0.032 | inactive: 0.011 | inactive: 0.079
21 | NAPG (UniProt Q99747) | inactive: 0.016 | inactive: -0.001 | inactive: -0.013 | inactive: 0.012 | inactive: 0.037
22 | NCBP3 (UniProt Q53F19) | inactive: -0.088 | inactive: 0.013 | inactive: 0.052 | inactive: 0.047 | inactive: -0.008
23 | NCR3LG1 (UniProt Q68D85) | inactive: -0.024 | inactive: -0.014 | inactive: 0.001 | inactive: -0.041 | inactive: -0.049
24 | NCAPG2 (UniProt Q86XI2) | inactive: -0.074 | inactive: -0.04 | inactive: 0.019 | inactive: 0.025 | inactive: 0.001
25 | NCSTN (UniProt Q92542) | inactive: -0.059 | inactive: 0.037 | inactive: 0.028 | inactive: -0.057 | inactive: -0.122
26 | MYSM1 (UniProt Q5VVJ2) | inactive: 0.001 | inactive: 0 | inactive: 0.034 | inactive: -0.009 | inactive: -0.052
27 | NAXE (UniProt Q8NCW5) | inactive: -0.042 | inactive: -0.07 | inactive: 0.026 | inactive: -0.008 | inactive: -0.005

Single records (already shown). Order of values: log2 fold change [1] | log2 fold change [2] | log2 fold change [3] | log2 fold change [4] | log2 fold change [5]
NASP (UniProt P49321) as listed: inactive: 0.027 | inactive: -0.003 | inactive: -0.009 | inactive: 0.003 | inactive: 0.011
NCAPG2 (UniProt Q86XI2) as listed: inactive: -0.074 | inactive: -0.04 | inactive: 0.019 | inactive: 0.025 | inactive: 0.001

The list continues:

Row | Target | log2 fold change [1] | log2 fold change [2] | log2 fold change [3] | log2 fold change [4] | log2 fold change [5]
28 | NBEAL2 (UniProt Q6ZNJ1) | inactive: -0.047 | inactive: 0.055 | inactive: 0.015 | inactive: -0.029 | inactive: 0.044
29 | MUL1 (UniProt Q969V5) | inactive: -0.029 | inactive: 0.014 | inactive: -0.01 | inactive: 0.015 | inactive: 0.064
30 | MUCL1 (UniProt Q96DR8) | inactive: -0.114 | inactive: 0.169 | inactive: -0.374 | inactive: 0.25 | inactive: -0.125
31 | MYO9B (UniProt Q13459) | inactive: 0.012 | inactive: 0.022 | inactive: -0.016 | inactive: -0.007 | inactive: -0.017
32 | NAPB (UniProt Q9H115) | inactive: 0.026 | inactive: 0.059 | inactive: -0.091 | inactive: -0.126 | inactive: 0.131
33 | NADSYN1 (UniProt Q6IA69) | inactive: 0.046 | inactive: -0.008 | inactive: -0.006 | inactive: -0.01 | inactive: -0.009
34 | NCBP2AS2 (UniProt Q69YL0) | inactive: -0.167 | inactive: 0.016 | inactive: 0.022 | inactive: 0.057 | inactive: 0.005
35 | NCAPH2 (UniProt Q6IBW4) | inactive: 0.027 | inactive: -0.001 | inactive: 0.035 | inactive: -0.005 | inactive: 0.024
36 | NAGLU (UniProt P54802) | inactive: -0.022 | inactive: 0.084 | inactive: 0.008 | inactive: -0.006 | inactive: 0
37 | NDC1 (UniProt Q9BTX1) | inactive: 0.001 | inactive: -0.055 | inactive: 0.003 | inactive: 0.02 | inactive: -0.172
38 | MYB isoform 4 (UniProt P10242) | inactive: -0.162 | inactive: 0.118 | inactive: 0.014 | inactive: -0.056 | inactive: 0.014
39 | NAP1L4 isoform 2 (UniProt Q99733) | inactive: 0.036 | inactive: 0.018 | inactive: 0.002 | inactive: 0.003 | inactive: 0.03
40 | NAE1 (UniProt Q13564) | inactive: 0.036 | inactive: 0.004 | inactive: 0.008 | inactive: 0.009 | inactive: 0.023
41 | N4BP2 (UniProt Q86UW6) | inactive: 0.024 | inactive: 0.04 | inactive: 0.064 | inactive: -0.022 | inactive: -0.068
42 | MVK (UniProt Q03426) | inactive: 0.009 | inactive: -0.001 | inactive: 0.038 | inactive: 0.004 | inactive: -0.007
43 | NANS (UniProt Q9NR45) | inactive: 0.001 | inactive: 0.04 | inactive: -0.025 | inactive: 0.04 | inactive: 0.016
44 | MYD88 isoform 6 (UniProt Q99836) | inactive: 0.019 | inactive: -0.021 | inactive: 0.026 | inactive: -0.008 | inactive: 0.013
45 | NCKAP1 isoform 2 (UniProt Q9Y2A7) | inactive: -0.015 | inactive: 0.003 | inactive: 0.006 | inactive: 0.015 | inactive: 0.018
46 | NAT1 (UniProt P18440) | inactive: 0.049 | inactive: -0.021 | inactive: 0.012 | inactive: 0.015 | inactive: 0.011
47 | MYCBP (UniProt Q99417) | inactive: 0.043 | inactive: -0.087 | inactive: -0.013 | inactive: -0.022 | inactive: -0.27
48 | MYO6 isoform 6 (UniProt Q9UM54) | inactive: 0.003 | inactive: 0.023 | inactive: 0.06 | inactive: 0.176 | inactive: 0.007
49 | NAA38 isoform 2 (UniProt Q9BRA0) | inactive: -0.002 | inactive: 0.02 | inactive: 0.063 | inactive: -0.005 | active: -0.344
50 | NCAPG (UniProt Q9BPX3) | inactive: -0.031 | inactive: 0.013 | inactive: -0.007 | inactive: 0.013 | inactive: 0.03
51 | MYH11 isoform 2 (UniProt P35749) | inactive: 0.037 | inactive: -0.021 | inactive: 0.004 | inactive: -0.065 | inactive: 0.025
52 | NAA40 (UniProt Q86UY6) | inactive: 0.077 | inactive: -0.017 | inactive: -0.031 | inactive: -0.049 | inactive: 0.151
53 | NCOA6 (UniProt Q14686) | inactive: -0.021 | inactive: 0.028 | inactive: -0.021 | inactive: -0.008 | inactive: -0.007
